Test results: article PMC12803835
No constants are given. Whether binding was seen depends on the method and setting. In cells and extracts the contact can be indirect. Some entries that bind do so weakly or less than the wild type.

By UniProt entry, the sequences of proteins in these tests, tags left out.
UniProt B2RXQ2: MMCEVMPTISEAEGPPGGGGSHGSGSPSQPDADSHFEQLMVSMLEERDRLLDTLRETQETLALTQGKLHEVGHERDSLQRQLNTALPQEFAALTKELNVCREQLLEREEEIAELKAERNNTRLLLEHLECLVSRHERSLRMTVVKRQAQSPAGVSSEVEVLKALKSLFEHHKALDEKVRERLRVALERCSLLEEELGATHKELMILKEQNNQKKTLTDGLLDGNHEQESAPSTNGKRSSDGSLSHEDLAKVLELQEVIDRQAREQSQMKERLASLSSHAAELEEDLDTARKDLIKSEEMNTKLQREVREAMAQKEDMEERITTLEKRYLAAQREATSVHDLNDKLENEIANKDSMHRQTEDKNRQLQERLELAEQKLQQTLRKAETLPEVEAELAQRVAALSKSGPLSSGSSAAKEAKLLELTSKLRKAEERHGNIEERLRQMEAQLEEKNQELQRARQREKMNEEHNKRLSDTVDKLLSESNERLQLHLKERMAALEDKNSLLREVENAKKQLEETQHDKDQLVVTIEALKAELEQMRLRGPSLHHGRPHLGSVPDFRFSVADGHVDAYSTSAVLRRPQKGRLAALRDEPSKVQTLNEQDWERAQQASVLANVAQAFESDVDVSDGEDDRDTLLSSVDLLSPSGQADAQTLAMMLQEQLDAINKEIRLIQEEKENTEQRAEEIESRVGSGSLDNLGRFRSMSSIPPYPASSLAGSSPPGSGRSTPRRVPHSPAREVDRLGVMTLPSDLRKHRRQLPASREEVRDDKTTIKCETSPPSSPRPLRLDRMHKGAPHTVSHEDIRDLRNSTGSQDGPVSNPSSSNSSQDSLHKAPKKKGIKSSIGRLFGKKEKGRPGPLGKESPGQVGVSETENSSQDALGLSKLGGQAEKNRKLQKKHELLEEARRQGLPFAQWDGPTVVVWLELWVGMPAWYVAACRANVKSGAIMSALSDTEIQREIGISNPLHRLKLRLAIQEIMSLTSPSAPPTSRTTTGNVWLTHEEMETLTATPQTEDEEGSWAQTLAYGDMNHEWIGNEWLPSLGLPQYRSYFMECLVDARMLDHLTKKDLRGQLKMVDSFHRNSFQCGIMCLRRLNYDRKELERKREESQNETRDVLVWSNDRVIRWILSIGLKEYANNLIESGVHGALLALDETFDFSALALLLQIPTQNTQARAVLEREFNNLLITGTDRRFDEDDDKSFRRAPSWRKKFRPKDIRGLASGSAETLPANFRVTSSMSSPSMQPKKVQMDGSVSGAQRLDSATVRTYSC

Target: T1, liprin-β1 (mouse (endogenous in MIN6)) (UniProt Q8C8U0)
T1 sequence: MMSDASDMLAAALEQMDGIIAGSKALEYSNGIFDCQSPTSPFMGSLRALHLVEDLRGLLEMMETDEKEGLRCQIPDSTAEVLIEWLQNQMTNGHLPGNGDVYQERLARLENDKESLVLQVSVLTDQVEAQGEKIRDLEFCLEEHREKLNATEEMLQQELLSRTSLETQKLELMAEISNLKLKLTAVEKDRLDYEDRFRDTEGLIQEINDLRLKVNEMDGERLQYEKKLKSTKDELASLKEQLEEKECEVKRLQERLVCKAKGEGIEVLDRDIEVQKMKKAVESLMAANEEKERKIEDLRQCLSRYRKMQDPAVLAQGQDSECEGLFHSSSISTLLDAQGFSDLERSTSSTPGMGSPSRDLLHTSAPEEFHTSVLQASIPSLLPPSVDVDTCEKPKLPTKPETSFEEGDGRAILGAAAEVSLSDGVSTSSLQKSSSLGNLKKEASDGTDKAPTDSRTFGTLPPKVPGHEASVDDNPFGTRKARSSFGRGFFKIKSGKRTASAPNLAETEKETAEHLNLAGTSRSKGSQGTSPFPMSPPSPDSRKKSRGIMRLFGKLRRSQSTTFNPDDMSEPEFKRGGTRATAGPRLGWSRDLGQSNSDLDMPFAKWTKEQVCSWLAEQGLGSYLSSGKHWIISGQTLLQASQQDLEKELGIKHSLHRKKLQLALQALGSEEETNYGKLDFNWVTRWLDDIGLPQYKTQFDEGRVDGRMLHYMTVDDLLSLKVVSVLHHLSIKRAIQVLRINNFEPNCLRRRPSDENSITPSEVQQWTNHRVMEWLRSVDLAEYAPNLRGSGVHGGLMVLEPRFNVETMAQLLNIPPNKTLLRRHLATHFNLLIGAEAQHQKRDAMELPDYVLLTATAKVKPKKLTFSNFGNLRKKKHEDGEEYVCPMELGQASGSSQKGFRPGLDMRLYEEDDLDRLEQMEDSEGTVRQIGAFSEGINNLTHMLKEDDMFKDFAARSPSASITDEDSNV
Test: co-IP; MIN6 β-cell line; immunoprecipitation of endogenous liprin-β1 with anti-liprin-β1 antibody, IgG control; blots for liprin-α1 and KANK1; n = 3

binding: binds
Substance: liprin-α1 (from UniProt B2RXQ2 1-1266)
